Results reported in article PMC3229559.
These are yes or no findings as the source states them, for the method shown. Binding seen in cells or lysates may run through a third protein. Some binding calls cover weakened binding; strength is not graded here. For some assays here: Sequences can lack the tags named with a protein.

Columns and labels:
[1] = target: T1, HA-tagged syndecan-4 full length (UniProt O35988); experiment: co-IP; lysates of HEK-293 cells co-transfected with syndecan-4 and CnA, in presence of 1.5 mM CaCl2; immunoprecipitation with anti-syndecan-4 or with anti-CnA, protein A/G agarose; washed three times in lysis buffer (20 mM Hepes pH 7.5, 150 mM NaCl, 1 mM EDTA, 0.5% Triton); immunoblot
T1 sequence: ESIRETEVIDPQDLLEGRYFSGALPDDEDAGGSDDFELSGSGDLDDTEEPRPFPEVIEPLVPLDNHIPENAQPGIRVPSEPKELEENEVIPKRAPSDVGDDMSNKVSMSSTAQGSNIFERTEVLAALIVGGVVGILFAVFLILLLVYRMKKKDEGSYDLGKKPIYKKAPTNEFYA

[2] = target: T2, endogenous syndecan-4 in left ventricular tissue (mouse (endogenous in LV tissue)) (UniProt O35988); experiment: co-IP; LV extracts (500 µg tissue extract A) from WT mice 24 h after SHAB or AB; anti-syndecan-4 or control IgG with protein A/G agarose overnight at 4°C; washes in IP-buffer and IP-buffer with high salt (1 M); immunoblot for PKC-α, CnA and calmodulin
T2 sequence: T1 sequence

[3] = target: T3, Biotinylated-syndecan-4 (biotinylated peptide spanning the cytoplasmic part of syndecan-4, residues 171-198); experiment: pull-down; biotinylated peptides (5 µM) incubated in total heart extract (tissue lysate B) from WT mice overnight at 4°C; anti-biotin-conjugated beads 60 min; washes in IP-buffer and IP-buffer with high salt (1 M); immunoblot for endogenous CnA and PKC-α; only the target purified
T3 sequence (peptide, biotin on the N-terminus): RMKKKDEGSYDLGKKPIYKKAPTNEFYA

[4] = target: T4, Biotinylated-pS179-syndecan-4 (biotinylated phosphopeptide spanning the cytoplasmic part of syndecan-4); experiment: as above
T4 sequence (peptide, phosphoserine at 179 (pS); biotin on the N-terminus): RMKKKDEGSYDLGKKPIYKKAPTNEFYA

[5] = target: His-tagged CnAα (calcineurin A alpha) (UniProt P63328); experiment: co-IP; lysates of HEK-293 cells co-transfected with syndecan-4 and CnA, in presence of 1.5 mM CaCl2; immunoprecipitation with anti-syndecan-4 or with anti-CnA, protein A/G agarose; washed three times in lysis buffer (20 mM Hepes pH 7.5, 150 mM NaCl, 1 mM EDTA, 0.5% Triton); immunoblot

“His-tagged CnAα (calcineurin A alpha) (from UniProt P63328 1-521) (enzyme)” was tested, and the binding [1] was “binds”.

For “endogenous PKC-α in left ventricular tissue (from UniProt P20444 1-672) (enzyme)”, the binding [2] was “binds”, the binding [3] was “binds” and the binding [4] was “binds”.

B1: HA-tagged syndecan-4 full length (receptor, UniProt O35988 24-198)
chain: T1 sequence
For B1, the binding [5] was “binds”.
